Reference: the supplement of paper PMC10849652
This is one part of the list.

By UniProt entry, the sequences of proteins in these tests, tags left out. Where a name states a change or a piece, a line headed by the entry shows the natural chain unless it says otherwise.
UniProt Q9Y3E0: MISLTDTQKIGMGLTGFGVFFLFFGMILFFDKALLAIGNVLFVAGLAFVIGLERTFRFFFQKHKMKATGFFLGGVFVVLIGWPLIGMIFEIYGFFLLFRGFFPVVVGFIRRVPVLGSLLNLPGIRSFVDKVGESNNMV
UniProt Q9HAV0, whole entry, looked up: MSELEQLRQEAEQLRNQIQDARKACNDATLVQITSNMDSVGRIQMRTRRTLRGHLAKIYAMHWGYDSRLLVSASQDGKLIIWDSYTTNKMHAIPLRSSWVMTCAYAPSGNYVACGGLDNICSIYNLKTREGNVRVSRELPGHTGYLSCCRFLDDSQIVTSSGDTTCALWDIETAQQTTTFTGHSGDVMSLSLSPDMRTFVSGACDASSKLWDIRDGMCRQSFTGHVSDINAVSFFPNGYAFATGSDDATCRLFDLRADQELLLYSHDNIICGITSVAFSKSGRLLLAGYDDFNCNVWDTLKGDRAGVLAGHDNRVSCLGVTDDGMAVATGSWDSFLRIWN
UniProt Q86SX6: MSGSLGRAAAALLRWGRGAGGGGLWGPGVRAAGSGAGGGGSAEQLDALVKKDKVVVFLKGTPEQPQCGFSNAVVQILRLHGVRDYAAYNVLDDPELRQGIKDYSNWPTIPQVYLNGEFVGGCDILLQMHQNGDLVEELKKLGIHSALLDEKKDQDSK
UniProt Q5VW38: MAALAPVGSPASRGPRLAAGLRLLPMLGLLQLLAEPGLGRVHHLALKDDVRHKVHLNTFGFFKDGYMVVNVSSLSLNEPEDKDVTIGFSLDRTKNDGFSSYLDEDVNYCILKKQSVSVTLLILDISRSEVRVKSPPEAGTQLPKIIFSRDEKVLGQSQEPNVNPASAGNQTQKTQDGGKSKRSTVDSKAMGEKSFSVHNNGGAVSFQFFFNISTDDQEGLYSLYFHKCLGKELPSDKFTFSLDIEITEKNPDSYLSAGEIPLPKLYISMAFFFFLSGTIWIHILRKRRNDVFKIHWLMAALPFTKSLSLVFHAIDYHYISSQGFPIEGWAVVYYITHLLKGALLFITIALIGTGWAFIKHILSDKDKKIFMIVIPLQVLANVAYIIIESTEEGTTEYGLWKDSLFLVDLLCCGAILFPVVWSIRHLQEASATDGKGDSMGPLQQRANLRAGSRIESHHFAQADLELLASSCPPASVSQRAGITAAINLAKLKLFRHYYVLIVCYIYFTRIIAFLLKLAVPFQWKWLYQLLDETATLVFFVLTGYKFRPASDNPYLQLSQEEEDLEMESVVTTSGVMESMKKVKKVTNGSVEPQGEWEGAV
UniProt Q8TDQ7: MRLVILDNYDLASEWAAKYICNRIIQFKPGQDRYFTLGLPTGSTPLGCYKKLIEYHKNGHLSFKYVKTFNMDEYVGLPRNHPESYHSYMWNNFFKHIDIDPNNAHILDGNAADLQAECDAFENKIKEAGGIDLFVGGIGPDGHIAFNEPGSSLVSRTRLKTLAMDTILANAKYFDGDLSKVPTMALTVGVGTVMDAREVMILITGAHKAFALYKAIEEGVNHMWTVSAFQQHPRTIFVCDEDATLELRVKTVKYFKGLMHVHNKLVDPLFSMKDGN
UniProt Q03113, whole entry, looked up: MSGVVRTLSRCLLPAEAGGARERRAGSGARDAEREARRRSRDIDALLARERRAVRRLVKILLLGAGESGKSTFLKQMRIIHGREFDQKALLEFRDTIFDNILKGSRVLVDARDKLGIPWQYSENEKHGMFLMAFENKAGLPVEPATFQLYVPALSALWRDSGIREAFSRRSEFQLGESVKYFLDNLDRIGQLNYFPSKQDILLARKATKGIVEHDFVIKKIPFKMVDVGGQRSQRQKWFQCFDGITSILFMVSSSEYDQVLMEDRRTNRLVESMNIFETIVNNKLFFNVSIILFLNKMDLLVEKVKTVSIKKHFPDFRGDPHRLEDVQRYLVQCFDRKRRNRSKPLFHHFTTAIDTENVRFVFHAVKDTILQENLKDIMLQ
UniProt O43292: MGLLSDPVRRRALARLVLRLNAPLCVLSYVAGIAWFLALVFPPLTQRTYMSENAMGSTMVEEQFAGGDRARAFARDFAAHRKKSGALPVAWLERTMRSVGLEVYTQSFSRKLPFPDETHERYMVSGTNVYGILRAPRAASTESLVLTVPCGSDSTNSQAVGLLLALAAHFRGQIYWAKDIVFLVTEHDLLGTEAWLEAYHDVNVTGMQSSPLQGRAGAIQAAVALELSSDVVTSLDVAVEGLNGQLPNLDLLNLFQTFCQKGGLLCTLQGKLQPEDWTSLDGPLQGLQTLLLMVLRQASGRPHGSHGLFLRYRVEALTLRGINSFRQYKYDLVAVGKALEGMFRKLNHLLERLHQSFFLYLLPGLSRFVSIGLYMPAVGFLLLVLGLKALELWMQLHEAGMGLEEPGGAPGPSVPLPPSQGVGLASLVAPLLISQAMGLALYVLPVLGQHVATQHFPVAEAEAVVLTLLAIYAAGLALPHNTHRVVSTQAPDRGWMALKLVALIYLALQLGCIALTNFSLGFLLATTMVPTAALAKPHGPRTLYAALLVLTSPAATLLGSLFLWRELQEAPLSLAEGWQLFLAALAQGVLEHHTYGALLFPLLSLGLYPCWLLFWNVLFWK
UniProt Q9HAV7: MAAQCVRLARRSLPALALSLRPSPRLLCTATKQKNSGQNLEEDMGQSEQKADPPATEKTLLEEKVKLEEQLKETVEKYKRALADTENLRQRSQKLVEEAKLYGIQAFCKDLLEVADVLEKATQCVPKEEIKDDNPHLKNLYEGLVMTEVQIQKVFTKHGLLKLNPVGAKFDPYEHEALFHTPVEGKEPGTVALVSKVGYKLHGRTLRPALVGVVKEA
UniProt O60234, whole entry, looked up: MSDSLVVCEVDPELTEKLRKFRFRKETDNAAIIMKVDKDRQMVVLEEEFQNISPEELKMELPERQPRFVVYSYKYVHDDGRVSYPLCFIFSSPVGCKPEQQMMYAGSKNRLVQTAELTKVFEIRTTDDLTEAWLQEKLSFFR
UniProt P04899, whole entry, looked up: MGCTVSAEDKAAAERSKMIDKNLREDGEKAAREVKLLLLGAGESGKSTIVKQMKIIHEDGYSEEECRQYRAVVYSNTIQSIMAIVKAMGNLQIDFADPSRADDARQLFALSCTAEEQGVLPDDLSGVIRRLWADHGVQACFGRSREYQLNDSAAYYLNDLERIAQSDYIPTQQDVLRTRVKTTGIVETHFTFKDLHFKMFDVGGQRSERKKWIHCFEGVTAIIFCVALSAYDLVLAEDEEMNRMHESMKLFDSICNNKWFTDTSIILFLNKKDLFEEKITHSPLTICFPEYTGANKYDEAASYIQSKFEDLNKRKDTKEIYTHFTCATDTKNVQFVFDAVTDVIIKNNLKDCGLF
UniProt Q9BRT9, whole entry, looked up: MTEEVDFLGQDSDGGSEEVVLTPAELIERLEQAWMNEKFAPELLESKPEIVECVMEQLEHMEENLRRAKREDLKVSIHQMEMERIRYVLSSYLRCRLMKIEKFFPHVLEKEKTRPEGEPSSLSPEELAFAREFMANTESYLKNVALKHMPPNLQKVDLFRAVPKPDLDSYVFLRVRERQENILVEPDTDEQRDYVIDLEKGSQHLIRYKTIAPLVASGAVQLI
UniProt Q2TAP0: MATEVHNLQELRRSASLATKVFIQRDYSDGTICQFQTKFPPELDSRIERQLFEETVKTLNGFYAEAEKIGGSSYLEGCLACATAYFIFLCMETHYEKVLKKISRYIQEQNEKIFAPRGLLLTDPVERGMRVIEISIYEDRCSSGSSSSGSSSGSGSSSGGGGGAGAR
UniProt P36959: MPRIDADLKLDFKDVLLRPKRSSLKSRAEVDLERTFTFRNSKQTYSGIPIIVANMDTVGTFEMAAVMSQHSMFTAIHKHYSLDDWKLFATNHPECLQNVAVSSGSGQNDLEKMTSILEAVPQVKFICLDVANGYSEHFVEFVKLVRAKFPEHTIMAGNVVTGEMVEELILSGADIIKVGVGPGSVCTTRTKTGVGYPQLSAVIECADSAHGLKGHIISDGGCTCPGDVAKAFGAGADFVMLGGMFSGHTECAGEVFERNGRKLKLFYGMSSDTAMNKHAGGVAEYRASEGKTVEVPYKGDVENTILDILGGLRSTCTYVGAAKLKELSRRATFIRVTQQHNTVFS
UniProt Q53EU6: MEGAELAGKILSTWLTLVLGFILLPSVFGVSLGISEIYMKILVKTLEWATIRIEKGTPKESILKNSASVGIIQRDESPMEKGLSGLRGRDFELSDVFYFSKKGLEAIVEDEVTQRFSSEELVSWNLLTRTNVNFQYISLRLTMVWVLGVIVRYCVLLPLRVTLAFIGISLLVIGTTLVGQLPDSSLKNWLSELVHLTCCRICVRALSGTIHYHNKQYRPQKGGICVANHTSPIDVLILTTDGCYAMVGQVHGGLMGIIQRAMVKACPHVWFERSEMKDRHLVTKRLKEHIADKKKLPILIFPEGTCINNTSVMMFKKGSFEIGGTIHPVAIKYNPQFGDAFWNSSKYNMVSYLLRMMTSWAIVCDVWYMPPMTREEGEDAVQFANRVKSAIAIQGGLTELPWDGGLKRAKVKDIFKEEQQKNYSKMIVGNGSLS
UniProt Q9HCN4, whole entry, looked up: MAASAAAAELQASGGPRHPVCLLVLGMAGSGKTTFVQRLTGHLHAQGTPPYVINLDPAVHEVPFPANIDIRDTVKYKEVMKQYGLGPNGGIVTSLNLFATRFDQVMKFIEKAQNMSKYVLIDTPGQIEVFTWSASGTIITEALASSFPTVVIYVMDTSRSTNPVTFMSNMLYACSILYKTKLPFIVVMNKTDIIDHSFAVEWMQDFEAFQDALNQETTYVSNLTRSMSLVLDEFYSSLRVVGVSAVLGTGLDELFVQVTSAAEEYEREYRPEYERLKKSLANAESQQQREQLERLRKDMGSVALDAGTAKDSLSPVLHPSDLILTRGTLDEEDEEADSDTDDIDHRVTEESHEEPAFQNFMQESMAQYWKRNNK

How the values were obtained:
Test in all cases: log2 fold change, soluble protein after heating vs DMSO (PISA); higher = thermal stabilisation; K562 cells, 10 uM, 30 min; active = over 0.2 and 3.5 SD of the protein, either way, in both replicates (recomputed)
[1] = compound: CN1CCN(CCOc2cc(OC3CCOCC3)c3c(Nc4c(Cl)ccc5c4OCO5)ncnc3c2)CC1 [saracatinib]
Method in brief: (§1)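 Soluble protein was defined as the supernatant after 21,000xg for 90 min. It came from K562 cells at 2×10^6 cells/mL given 10 μM compound for 30 min, heated in aliquots for 3 min across 48°C-58°C, pooled, and extracted in PBS with 0.5% NP-40 at 4°C, and was quantified by TMTpro 16plex LC-MS/MS with equalised channel sums. Thermal stability against control samples, from duplicates, is reported as log2 fold change.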

[2] = compound: CN1CCN(c2nc(C3=C(c4c[nH]c5ccccc45)C(=O)NC3=O)c3ccccc3n2)CC1 [sotrastaurin]
Method in brief: as §1

[3] = compound: CN1CC[C@H](c2c(O)cc(O)c3c(=O)cc(-c4ccccc4Cl)oc23)[C@H](O)C1 [alvocidib]
Method in brief: as §1

[4] = compound: CN1CCc2c(c3ccccc3n2Cc2ccc(C(=O)NO)cc2)C1 [Tubastatin A]
Method in brief: as §1

[5] = compound: CNC(=O)C1=CC=CC=C1NC2=NC(=NC=C2Cl)NC3=C(C=C(C=C3)N4CCOCC4)OC
Method in brief: as §1

[6] = compound: CNC(=O)c1ccc(Nc2ncc(C(F)(F)F)c(NCc3nccnc3N(C)S(C)(=O)=O)n2)cc1 [defactinib]
Method in brief: as §1

[7] = compound: CNCc1ccc(-c2[nH]c3cc(F)cc4c3c2CCNC4=O)cc1 [rucaparib]
Method in brief: as §1

[8] = compound: CNc1nc(-c2ccc3c(N)n[nH]c3c2)cc(N2C[C@@H](C(=O)NC3CCCCC3)CC[C@H]2C)n1
Method in brief: as §1

[9] = compound: COC(=O)N[C@@H](C)CNc1nccc(-c2cn(C(C)C)nc2-c2cc(Cl)cc(NS(C)(=O)=O)c2F)n1 [encorafenib]
Method in brief: as §1

[10] = compound: COC(=O)[C@H](CCSC)NC(=O)C1=C(C=C(C=C1)NC[C@H](CS)N)C2=CC=CC=C2
Method in brief: as §1

[11] = compound: COC1=CC=C(C=C1)CN2C=CC3=C2C=C(C=C3)C(=O)NO
Method in brief: as §1

[12] = compound: CON(C)C(=O)N1N=C(c2cc(F)ccc2F)S[C@@]1(CCCN)c1ccccc1 [filanesib]
Method in brief: as §1

[13] = compound: CO[C@H]1C[C@@H]2CC[C@@H](C)[C@@](O)(O2)C(=O)C(=O)N2CCCC[C@H]2C(=O)O[C@H]([C@H](C)C[C@@H]2CC[C@H](n3cnnn3)[C@H](OC)C2)CC(=O)[C@H](C)/C=C(\C)[C@@H](O)[C@@H](OC)C(=O)[C@H](C)C[C@H](C)/C=C/C=C/C=C/1C [zotarolimus]
Method in brief: as §1

[14] = compound: COc1cc(C(=O)O)ccc1NC(=O)[C@@H]1N[C@@H](CC(C)(C)C)[C@](C#N)(c2ccc(Cl)cc2F)[C@H]1c1cccc(Cl)c1F [idasanutlin]
Method in brief: as §1

[15] = compound: COc1cc(Nc2ncc3c(n2)-c2ccc(Cl)cc2C(c2c(F)cccc2OC)=NC3)ccc1C(=O)O [alisertib]
Method in brief: as §1

[16] = compound: COc1cc2nc(-c3cc(F)ccc3O)nc(N[C@@H]3CNC[C@H]3C(C)(C)O)c2cc1OC
Method in brief: as §1

[17] = compound: COc1cc2ncnc(Nc3ccc(F)c(Cl)c3)c2cc1OCCCN1CCOCC1 [gefitinib]
Method in brief: as §1

[18] = compound: COc1cccc2cc(-c3nc([C@H]4CC[C@H](C(=O)O)CC4)n4ncnc(N)c34)[nH]c12
Method in brief: as §1

[19] = compound: CS(=O)(=O)CCNCc1ccc(-c2ccc3ncnc(Nc4ccc(OCc5cccc(F)c5)c(Cl)c4)c3c2)o1 [lapatinib]
Method in brief: as §1

[20] = compound: CS(=O)(=O)N1CCN(Cc2cc3nc(-c4cccc5[nH]ncc45)nc(N4CCOCC4)c3s2)CC1 [pictilisib]
Method in brief: as §1

Measured: log2 fold change

GOLT1B (UniProt Q9Y3E0)
inactive: [1] 0.076 | [2] 0.064 | [3] 0.001 | [4] -0.084 | [5] 0.002 | [6] -0.045 | [7] -0.076 | [8] -0.012 | [9] -0.001 | [10] 0.027 | [11] 0.011 | [12] -0.001 | [13] -0.029 | [14] -0.014 | [15] 0.014 | [16] -0.043 | [17] -0.026 | [18] 0.09 | [19] -0.043 | [20] -0.073

GNB4 (UniProt Q9HAV0)
inactive: [1] 0.048 | [2] -0.044 | [3] 0.082 | [4] 0.055 | [5] 0.03 | [6] 0.038 | [7] -0.048 | [8] -0.031 | [9] -0.043 | [10] -0.028 | [11] -0.082 | [12] 0.135 | [13] -0.013 | [14] 0.08 | [15] -0.103 | [16] 0.072 | [17] 0.033 | [18] 0.067 | [19] 0.041 | [20] -0.002

GPI (UniProt P06744)
inactive: [1] 0.028 | [2] 0.011 | [3] -0.075 | [4] -0.014 | [5] -0.034 | [6] -0.016 | [7] -0.064 | [8] 0.002 | [9] -0.002 | [10] -0.005 | [11] -0.059 | [12] -0.059 | [13] 0.02 | [14] -0.017 | [15] -0.031 | [16] 0 | [17] 0.011 | [18] 0.041 | [19] -0.047 | [20] -0.052

GLRX5 (UniProt Q86SX6)
inactive: [1] -0.029 | [2] 0.041 | [3] -0.013 | [4] 0.078 | [5] 0.007 | [6] -0.027 | [7] -0.053 | [8] 0.068 | [9] 0.048 | [10] -0.045 | [11] 0.027 | [12] 0.011 | [13] 0.004 | [14] 0.015 | [15] -0.034 | [16] -0.117 | [17] 0.053 | [18] 0.12 | [19] -0.019

GPR107 (UniProt Q5VW38)
inactive: [1] 0.046 | [2] 0.033 | [3] -0.006 | [4] -0.011 | [5] -0.001 | [6] -0.023 | [7] -0.019 | [8] -0.026 | [9] 0 | [10] 0.035 | [11] -0.006 | [12] -0.093 | [13] -0.019 | [14] -0.011 | [15] -0.006 | [16] 0.013 | [17] -0.005 | [18] 0.069 | [19] 0.002 | [20] -0.017

GNPDA2 (UniProt Q8TDQ7)
inactive: [1] 0.095 | [2] 0.047 | [3] -0.096 | [4] -0.128 | [5] -0.029 | [6] 0.01 | [7] 0.058 | [8] -0.015 | [9] 0.007 | [10] 0.057 | [11] -0.053 | [12] -0.027 | [13] 0.087 | [14] -0.054 | [15] -0.038 | [16] 0.046 | [17] -0.024 | [18] 0.059 | [19] 0.029 | [20] 0.072

GNA12 (UniProt Q03113)
inactive: [1] -0.069 | [2] 0.137 | [3] 0.131 | [4] 0.019 | [5] -0.047 | [6] 0.003 | [7] -0.302 | [8] -0.143 | [9] -0.096 | [10] 0.045 | [11] -0.43 | [12] 0.093 | [13] -0.17 | [14] -0.237 | [15] -0.402 | [16] 0.406 | [17] -0.016 | [18] 0.071 | [19] -0.266 | [20] 0.148

GPAA1 (UniProt O43292)
inactive: [1] -0.051 | [2] -0.021 | [3] -0.064 | [4] -0.01 | [5] -0.01 | [6] -0.035 | [7] -0.06 | [8] -0.009 | [9] 0.048 | [10] -0.025 | [11] -0.014 | [12] -0.015 | [13] 0.025 | [14] -0.061 | [15] -0.041 | [16] 0.085 | [17] -0.024 | [18] 0.002 | [19] -0.024 | [20] 0.004

GRPEL1 (UniProt Q9HAV7)
inactive: [1] -0.018 | [2] 0.031 | [3] -0.043 | [4] 0.005 | [5] 0.019 | [6] -0.01 | [7] -0.046 | [8] -0.035 | [9] -0.02 | [10] 0 | [11] -0.032 | [12] -0.036 | [13] 0.015 | [14] -0.045 | [15] -0.04 | [16] 0.014 | [17] 0.009 | [18] 0.004 | [19] -0.059 | [20] 0.068

Taken from the entries so far (two entries):
GPI (UniProt P06744)
inactive: [1] 0.028 | [2] 0.011 | [3] -0.075 | [4] -0.014 | [5] -0.034 | [6] -0.016 | [7] -0.064 | [8] 0.002 | [9] -0.002 | [10] -0.005 | [11] -0.059 | [12] -0.059 | [13] 0.02 | [14] -0.017 | [15] -0.031 | [16] 0 | [17] 0.011 | [18] 0.041 | [19] -0.047 | [20] -0.052

GLRX5 (UniProt Q86SX6)
inactive: [1] -0.029 | [2] 0.041 | [3] -0.013 | [4] 0.078 | [5] 0.007 | [6] -0.027 | [7] -0.053 | [8] 0.068 | [9] 0.048 | [10] -0.045 | [11] 0.027 | [12] 0.011 | [13] 0.004 | [14] 0.015 | [15] -0.034 | [16] -0.117 | [17] 0.053 | [18] 0.12 | [19] -0.019

Next records.

GMFG (UniProt O60234)
inactive: [1] 0.043 | [2] -0.017 | [3] -0.043 | [4] 0.016 | [5] 0.024 | [6] -0.042 | [7] 0.054 | [8] -0.053 | [9] 0.026 | [10] -0.03 | [11] -0.137 | [12] 0.022 | [13] 0.062 | [14] -0.057 | [15] -0.089 | [16] -0.02 | [17] 0.028 | [18] -0.001 | [19] -0.06 | [20] 0.03

GNAI2 isoform 4 (UniProt P04899)
inactive: [1] -0.046 | [2] 0.026 | [3] 0.025 | [4] -0.034 | [5] 0.052 | [6] -0.006 | [7] 0.079 | [8] 0.049 | [9] 0.008 | [10] -0.098 | [11] -0.029 | [12] -0.05 | [13] -0.015 | [14] -0.049 | [15] -0.086 | [16] 0.154 | [17] 0.078 | [18] -0.023 | [19] -0.001 | [20] 0.073

GINS4 (UniProt Q9BRT9)
inactive: [1] -0.021 | [2] -0.094 | [3] -0.063 | [4] 0.049 | [5] -0.072 | [6] -0.047 | [7] -0.004 | [8] 0.016 | [9] -0.03 | [10] -0.041 | [11] 0.032 | [12] -0.065 | [13] 0.014 | [14] -0.015 | [15] -0.037 | [16] 0.058 | [17] 0 | [18] 0.004 | [19] -0.032 | [20] -0.061

GOLGA7B (UniProt Q2TAP0)
inactive: [1] -0.034 | [2] -0.118 | [3] -0.061 | [4] -0.034 | [5] 0.101 | [6] 0.038 | [7] -0.073 | [8] 0.023 | [9] -0.027 | [10] -0.051 | [11] -0.069 | [12] 0.147 | [13] -0.147 | [14] -0.077 | [15] -0.031 | [16] -0.038 | [17] 0.05 | [18] -0.046 | [19] -0.066

GMPR (UniProt P36959)
inactive: [1] -0.027 | [2] 0.035 | [3] -0.007 | [4] -0.01 | [5] -0.012 | [6] -0.046 | [7] -0.014 | [8] 0.005 | [9] -0.013 | [10] 0.011 | [11] 0.055 | [12] -0.042 | [13] 0.024 | [14] -0.047 | [15] -0.033 | [16] 0.011 | [17] -0.012 | [18] 0.048 | [19] -0.014 | [20] 0.008

GPAT3 (UniProt Q53EU6)
inactive: [1] 0.003 | [2] 0.071 | [3] -0.09 | [4] 0.018 | [5] 0.051 | [6] -0.09 | [7] -0.009 | [8] 0.015 | [9] -0.066 | [10] -0.039 | [11] -0.014 | [12] 0.05 | [13] -0.003 | [14] -0.036 | [15] -0.097 | [16] 0.161 | [17] -0.007 | [18] 0.061 | [19] 0.014

GPN1 isoform 5 (UniProt Q9HCN4)
inactive: [1] -0.001 | [2] -0.021 | [3] -0.066 | [4] 0.046 | [5] -0.059 | [6] -0.046 | [7] 0.007 | [8] 0.009 | [9] 0.012 | [10] 0.061 | [11] 0.045 | [12] -0.004 | [13] -0.008 | [14] -0.019 | [15] -0.035 | [16] -0.042 | [17] 0.002 | [18] 0.097 | [19] 0.051 | [20] 0.033
